{"source": "patent US9255090B2", "about": "“Heterocyclyl derivatives and their use as prostaglandin D2 receptor modulators” (Actelion Pharmaceuticals Ltd., priority 2012, dated 2016)", "tested_on": "eosinophils", "assay": "Eosinophil shape change assay with human plasma", "type": "cell-based", "conditions": "human plasma (50%), PGD2 100 nM activation, antagonistic activity", "from_the_text": "Eosinophil Shape Change Assay with Human Plasma\nAfter obtaining informed consent, blood samples were drawn by venipuncture according to the protocol approved by the ethics committee of Basel, Switzerland. Polymorphonuclear leukocytes (containing eosinophils, basophils and neutrophils) were isolated using the Polymorphprep™ method (Axis-Shield). […] The polymorphonuclear cell fraction was harvested and depleted for erythrocytes by hypotonic saline lysis. […]\nImmediately after fixation with paraformaldehyde, the samples were analyzed by FACSCanto flow cytometer (BD Biosciences) and target cells were identified by their forward-scatter (FSC) and side-scatter (SSC) characteristics. […] Shape change responses, indicative of eosinophil activation, were quantified as the percent of cells with an increased forward-scatter.", "data": [{"smiles": "O=C(O)Cc1ccc(OCC2CC2)c(-c2ccc(F)c3c2CN(C(=O)OCc2ccccc2)CC3)c1", "note": "[Example 196, 8-(5-Carboxymethyl-2-cyclopropylmethoxy-phenyl)-5-fluoro-3,4-dihydro-1H-isoquinoline-2-carboxylic acid benzyl ester]", "values": [{"measurement": "IC50", "result": 44, "unit": "nM"}]}]}
